In PMC13035816:
No constants are given. Whether binding was seen depends on the method and setting. Binding seen in cells or lysates may run through a third protein. Some binding calls cover weakened binding; strength is not graded here. For part of these data: Tags and fused reporters may be left off the sequences shown.

Key:
[1] = target: T1, RING finger protein 128 (endogenous, AML12 cells) (mouse (endogenous in AML12)) (UniProt Q9D304); assay: co-IP; endogenous proteins in AML12 cell extracts; immunoprecipitated with anti-RNF128, anti-PPARα or rabbit IgG at 4 °C overnight in lysis buffer (50 mM Tris pH 8.0, 5 mM NaCl, 0.5% NP-40), Dynabeads Protein G, washes with SNNTE buffer (0.5 M NaCl, 1% NP-40); blots with anti-RNF128 and anti-PPARα; during fasting a significant decrease of the interaction (Fig. S7)
T1 sequence: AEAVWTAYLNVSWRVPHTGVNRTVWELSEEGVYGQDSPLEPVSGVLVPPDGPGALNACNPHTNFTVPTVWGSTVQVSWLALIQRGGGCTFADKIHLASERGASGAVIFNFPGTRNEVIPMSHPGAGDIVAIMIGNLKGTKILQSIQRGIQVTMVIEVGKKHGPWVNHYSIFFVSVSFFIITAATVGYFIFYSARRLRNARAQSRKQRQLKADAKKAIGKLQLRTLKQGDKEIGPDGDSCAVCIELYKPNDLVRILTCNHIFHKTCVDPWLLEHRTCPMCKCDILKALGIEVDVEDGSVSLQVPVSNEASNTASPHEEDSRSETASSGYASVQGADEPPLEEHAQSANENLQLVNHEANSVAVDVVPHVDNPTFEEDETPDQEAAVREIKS

[2] = target: T2, Peroxisome proliferator-activated receptor alpha (endogenous, AML12 cells) (mouse (endogenous in AML12)) (UniProt P23204); assay: as above
T2 sequence: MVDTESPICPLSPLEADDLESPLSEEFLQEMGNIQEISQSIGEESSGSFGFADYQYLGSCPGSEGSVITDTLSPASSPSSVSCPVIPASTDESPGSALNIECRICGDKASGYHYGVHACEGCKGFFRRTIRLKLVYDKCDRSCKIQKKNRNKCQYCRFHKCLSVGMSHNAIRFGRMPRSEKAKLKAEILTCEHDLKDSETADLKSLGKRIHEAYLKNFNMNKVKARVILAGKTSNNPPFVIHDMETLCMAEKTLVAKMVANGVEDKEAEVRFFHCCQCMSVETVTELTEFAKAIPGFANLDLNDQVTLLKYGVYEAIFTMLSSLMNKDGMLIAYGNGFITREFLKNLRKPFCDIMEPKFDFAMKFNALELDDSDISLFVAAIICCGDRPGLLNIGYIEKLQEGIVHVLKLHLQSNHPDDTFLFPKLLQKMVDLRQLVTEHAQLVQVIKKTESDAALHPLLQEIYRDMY

[3] = target: T3, RNF128-GFP (UniProt Q8TEB7); assay: co-IP; HEK293 cells transiently transfected, lysates after 48 h; immunoprecipitated with GFP antibody (RNF128-GFP constructs with HA-PPARα) or HA antibody (HA-PPARα constructs with Flag-RNF128); immunoblot
T3 sequence: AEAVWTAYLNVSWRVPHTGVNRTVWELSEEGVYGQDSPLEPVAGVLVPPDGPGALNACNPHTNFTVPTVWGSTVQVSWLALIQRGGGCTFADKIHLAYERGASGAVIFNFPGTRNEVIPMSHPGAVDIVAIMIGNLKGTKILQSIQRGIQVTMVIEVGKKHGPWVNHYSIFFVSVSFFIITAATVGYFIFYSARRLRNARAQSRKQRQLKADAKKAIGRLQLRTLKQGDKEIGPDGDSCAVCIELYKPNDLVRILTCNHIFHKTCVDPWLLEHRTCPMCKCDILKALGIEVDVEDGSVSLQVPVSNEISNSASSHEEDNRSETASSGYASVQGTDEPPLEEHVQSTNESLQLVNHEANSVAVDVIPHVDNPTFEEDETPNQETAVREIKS

[4] = target: T4, RNF128_(1–228)-GFP (UniProt Q8TEB7); assay: as above
T4 sequence: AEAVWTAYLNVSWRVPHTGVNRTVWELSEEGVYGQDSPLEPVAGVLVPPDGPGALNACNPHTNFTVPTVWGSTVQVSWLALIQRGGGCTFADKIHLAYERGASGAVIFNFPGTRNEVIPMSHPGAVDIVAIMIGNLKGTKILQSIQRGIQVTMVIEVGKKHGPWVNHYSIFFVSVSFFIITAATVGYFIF

[5] = target: T5, HA-PPARα (UniProt Q07869); assay: as above
T5 sequence: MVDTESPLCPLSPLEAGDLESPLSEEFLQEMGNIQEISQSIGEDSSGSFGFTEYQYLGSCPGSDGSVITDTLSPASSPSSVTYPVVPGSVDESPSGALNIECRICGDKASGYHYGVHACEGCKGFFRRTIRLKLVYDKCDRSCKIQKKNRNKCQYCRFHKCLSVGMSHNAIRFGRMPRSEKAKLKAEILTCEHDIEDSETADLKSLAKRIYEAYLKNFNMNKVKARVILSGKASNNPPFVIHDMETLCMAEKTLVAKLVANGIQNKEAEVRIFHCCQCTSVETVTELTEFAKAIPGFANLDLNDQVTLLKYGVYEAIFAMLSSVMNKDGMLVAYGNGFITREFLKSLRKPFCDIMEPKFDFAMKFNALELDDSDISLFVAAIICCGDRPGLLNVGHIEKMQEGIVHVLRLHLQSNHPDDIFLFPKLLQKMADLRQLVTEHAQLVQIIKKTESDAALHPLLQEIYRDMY

[6] = target: T6, HA-PPARα_(1–278) (UniProt Q07869); assay: as above
T6 sequence: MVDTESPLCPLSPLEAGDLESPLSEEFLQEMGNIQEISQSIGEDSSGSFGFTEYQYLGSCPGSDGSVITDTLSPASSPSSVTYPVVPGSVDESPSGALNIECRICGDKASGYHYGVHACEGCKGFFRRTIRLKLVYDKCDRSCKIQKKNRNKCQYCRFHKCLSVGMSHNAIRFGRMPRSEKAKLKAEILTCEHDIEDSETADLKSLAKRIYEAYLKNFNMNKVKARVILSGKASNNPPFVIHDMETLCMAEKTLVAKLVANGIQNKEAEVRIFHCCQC

B1: Peroxisome proliferator-activated receptor alpha (endogenous, AML12 cells) (protein, UniProt P23204 1-468)
chain: MVDTESPICPLSPLEADDLESPLSEEFLQEMGNIQEISQSIGEESSGSFGFADYQYLGSCPGSEGSVITDTLSPASSPSSVSCPVIPASTDESPGSALNIECRICGDKASGYHYGVHACEGCKGFFRRTIRLKLVYDKCDRSCKIQKKNRNKCQYCRFHKCLSVGMSHNAIRFGRMPRSEKAKLKAEILTCEHDLKDSETADLKSLGKRIHEAYLKNFNMNKVKARVILAGKTSNNPPFVIHDMETLCMAEKTLVAKMVANGVEDKEAEVRFFHCCQCMSVETVTELTEFAKAIPGFANLDLNDQVTLLKYGVYEAIFTMLSSLMNKDGMLIAYGNGFITREFLKNLRKPFCDIMEPKFDFAMKFNALELDDSDISLFVAAIICCGDRPGLLNIGYIEKLQEGIVHVLKLHLQSNHPDDTFLFPKLLQKMVDLRQLVTEHAQLVQVIKKTESDAALHPLLQEIYRDMY
binding [1]: binds

B2: RING finger protein 128 (endogenous, AML12 cells) (protein, UniProt Q9D304 39-428)
chain: AEAVWTAYLNVSWRVPHTGVNRTVWELSEEGVYGQDSPLEPVSGVLVPPDGPGALNACNPHTNFTVPTVWGSTVQVSWLALIQRGGGCTFADKIHLASERGASGAVIFNFPGTRNEVIPMSHPGAGDIVAIMIGNLKGTKILQSIQRGIQVTMVIEVGKKHGPWVNHYSIFFVSVSFFIITAATVGYFIFYSARRLRNARAQSRKQRQLKADAKKAIGKLQLRTLKQGDKEIGPDGDSCAVCIELYKPNDLVRILTCNHIFHKTCVDPWLLEHRTCPMCKCDILKALGIEVDVEDGSVSLQVPVSNEASNTASPHEEDSRSETASSGYASVQGADEPPLEEHAQSANENLQLVNHEANSVAVDVVPHVDNPTFEEDETPDQEAAVREIKS
binding [2]: binds

B3: HA-PPARα (protein, UniProt Q07869 1-468)
chain: MVDTESPLCPLSPLEAGDLESPLSEEFLQEMGNIQEISQSIGEDSSGSFGFTEYQYLGSCPGSDGSVITDTLSPASSPSSVTYPVVPGSVDESPSGALNIECRICGDKASGYHYGVHACEGCKGFFRRTIRLKLVYDKCDRSCKIQKKNRNKCQYCRFHKCLSVGMSHNAIRFGRMPRSEKAKLKAEILTCEHDIEDSETADLKSLAKRIYEAYLKNFNMNKVKARVILSGKASNNPPFVIHDMETLCMAEKTLVAKLVANGIQNKEAEVRIFHCCQCTSVETVTELTEFAKAIPGFANLDLNDQVTLLKYGVYEAIFAMLSSVMNKDGMLVAYGNGFITREFLKSLRKPFCDIMEPKFDFAMKFNALELDDSDISLFVAAIICCGDRPGLLNVGHIEKMQEGIVHVLRLHLQSNHPDDIFLFPKLLQKMADLRQLVTEHAQLVQIIKKTESDAALHPLLQEIYRDMY
binding [3]: binds | binding [4]: binds

B4: Flag-RNF128 (protein, UniProt Q8TEB7 39-428)
chain: AEAVWTAYLNVSWRVPHTGVNRTVWELSEEGVYGQDSPLEPVAGVLVPPDGPGALNACNPHTNFTVPTVWGSTVQVSWLALIQRGGGCTFADKIHLAYERGASGAVIFNFPGTRNEVIPMSHPGAVDIVAIMIGNLKGTKILQSIQRGIQVTMVIEVGKKHGPWVNHYSIFFVSVSFFIITAATVGYFIFYSARRLRNARAQSRKQRQLKADAKKAIGRLQLRTLKQGDKEIGPDGDSCAVCIELYKPNDLVRILTCNHIFHKTCVDPWLLEHRTCPMCKCDILKALGIEVDVEDGSVSLQVPVSNEISNSASSHEEDNRSETASSGYASVQGTDEPPLEEHVQSTNESLQLVNHEANSVAVDVIPHVDNPTFEEDETPNQETAVREIKS
binding [5]: binds | binding [6]: binds
